# Source: PubChem BioAssay AID720580 (National Center for Advancing Translational Sciences (NCATS), 2013)
# Hit rate of the full screen: of about 330,000 compounds, about 1,500 (0.45%) were called active. All entries are inconclusive by the source's own rule. Clear calls are listed elsewhere. The call rests on the fitted dose curve; tested in A549 cells.
# Experiment: qHTS for Stage-Specific Inhibitors of Vaccinia Orthopoxvirus: Venus Reporter Primary qHTS; further: nearly all actives have a fitted effect of over 30% in size
# Conditions: Vaccinia virus Venus reporter expression, fluorescence; activity change, negative = inhibition: at 36.5 µM (top of the series)
# On the % scale 0 is the no-effect control and ±100 the full control effect; potency means the concentration at half of the fitted maximal effect.
SMILES,Potency,"activity change, negative = inhibition"
CC1CCOC(=O)C=CC=CC(=O)OC2CC3OC4C5OC5(C)CCC4(COC(=O)C1O)C2(C)C31CO1 (centres undefined),inconclusive: 0.1 µM,
CP(=O)(Nc1ccc(SC(F)(F)F)cc1)Oc1ccccc1 (centres undefined),inconclusive: 10 µM,
O=[N+]([O-])c1cc([N+](=O)[O-])c(-c2cnn(-c3ccccc3)c2)c([N+](=O)[O-])c1,inconclusive: 0.891 µM,
O=[N+]([O-])c1ccc2c(c1)C=Nc1ccccc1O2,inconclusive: 10 µM,
CC(C)(C)c1ccc(OP(C)(=O)Nc2ccc(SC(F)(F)F)cc2)cc1 (centres undefined),inconclusive: 28.2 µM,
CN(C)CCOC(=O)C(O)(c1ccccc1)C1CCCC1 (centres undefined),,inconclusive: 4.36%
O=[N+]([O-])c1cc([N+](=O)[O-])c(Nc2ccccn2)c([N+](=O)[O-])c1,inconclusive: 28.2 µM,
CCCCCCCCCCCCCCCC1C[N+](C)(C)CCOP(C)(=O)O1 (centres undefined),inconclusive: 11.2 µM,
CCCCCOc1ccc(NP(C)(=O)Oc2ccc(Cl)cc2Cl)cc1 (centres undefined),inconclusive: 12.6 µM,
